Laboratory results: PubChem BioAssay AID624297 (National Center for Advancing Translational Sciences (NCATS), 2012)
Several values for one entry are separate records, joined by “and”; a condition that tells them apart may be missing. Identical values can stand only once. Screen size: about 340,000 compounds; about 6,200 (1.8%) were called active. Inconclusive means that the source gave no clear call. Such entries were picked first, then a sample of the others. Calls follow the shape of the dose curve; as a rule, active = well fitted activation curve with a large enough effect; inconclusive = small, poorly fitted or top-dose-only effect; inactive = no such curve, though single readings can be large or run the other way. A potency beside an inconclusive call is a rough fit, not a confirmed value.
Potency is read from the fitted curve at half-maximal effect.

Experiment: A quantitative high throughput screen for small molecules that induce DNA re-replication in SW480 colon adenocarcinoma cells. Also: nearly all actives have a fitted effect of over 55% in size.
Conditions: Hoechst DNA content imaging, 48 h; series mostly up to 46.1 µM
How it was run: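 Cells (250 per well) received 23 nL compound or DMSO by pin tool and were kept 48 hr at 37 C, 5% CO2. Nuclei were then stained with Hoechst for 40 min and scanned for DNA content.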
In the case of `CC(C)[C@H](NC(=O)c1ccc(F)cc1)C(=O)NC1=NCCS1`, the Potency is reported as “inactive”. With `COc1ccc(N=C/C=C2\C=C(c3ccccc3)OC(C)(C)O2)cc1` the Potency was inconclusive: 29.1 µM [activator, single point]. For `COc1cc(OC)cc(OC(=O)C2CCN(S(=O)(=O)c3ccc(OC)c(OC)c3)CC2)c1`, the Potency was inconclusive: 5.8 µM [activator, partial curve, poor fit]. With `O=C(O)CC1S/C(=N/N=C/c2ccc(-c3ccc(Cl)c([N+](=O)[O-])c3)o2)NC1=O` (stereo not drawn) the Potency was inconclusive: 0.13 µM [activator, full curve, poor fit]. With `Cc1[nH]c2ccccc2c1/C=C(\C#N)S(=O)(=O)c1ccccc1` the Potency was “inactive”. In the case of `COCC(=O)N1CCCC(C(=O)c2ccc(C(F)(F)F)cc2)C1` (stereo not drawn), the Potency is reported as inconclusive: 18.4 µM [activator, single point]. For `O=C1[C@@H]2Cc3ccccc3CN2C(=O)N1c1cccc(F)c1`, the Potency was “inactive”. For `O=C(CNC(=O)c1ccc2c(c1)OCCO2)N/N=C/c1ccc(O)cc1O`, the Potency was inconclusive: 29.1 µM [activator, partial curve, poor fit]. For `O=C(c1cc2c(=O)n3ccccc3nc2s1)N1CCN(c2cccc(Cl)c2)CC1`, the Potency was inconclusive: 18.4 µM [activator, single point]. In the case of `N#Cc1c(SCC(=O)Nc2nccs2)nc2c(c1-c1ccco1)CCCC2`, the Potency is reported as inconclusive: 29.1 µM [activator, single point]. In the case of `COc1ccccc1NC(=O)CSc1ncn(-c2ccccc2)n1`, the Potency is reported as “inactive”. For `C[C@H]1CN([C@@H](C)CO)C(=O)Cc2cc(NC(=O)CCN3CCOCC3)ccc2O[C@@H]1CN(C)Cc1ccc(Oc2ccccc2)cc1`, the Potency was inconclusive: 8.2 µM [activator, partial curve, poor fit]. For `Nc1c(Cl)ncnc1N/N=C/c1ccc2ccccc2n1`, the Potency was active: 0.259 µM. For `CN(CC1CCCO1)S(=O)(=O)c1ccc(C(=O)Nc2nc3cc4c(cc3s2)OCO4)cc1` (stereo not drawn), the Potency was “inactive”. With `Cc1ccc2nc(SCC(=O)Nc3ccccc3N3CCOCC3)c(C#N)cc2c1` the Potency was inconclusive: 3.16 µM [activator, partial curve, poor fit]. For `COc1ccc(-c2nnc(C)c3nocc23)cc1`, the Potency was inconclusive: 6.51 µM [activator, single point]. For `CC(C)C(=O)NC(c1ccccc1)c1cc([N+](=O)[O-])c2cccnc2c1O` (stereo not drawn), the Potency was inconclusive: 23.1 µM [activator, single point]. For `COc1cc([N+](=O)[O-])ccc1NC(=S)N1CCOCC1`, the Potency was inconclusive: 2.06 µM [activator, partial curve, poor fit]. For `O=C(CSc1ccccn1)Nc1cccc(S(=O)(=O)N2CCCC2)c1`, the Potency was “inactive”. For `COC(=O)c1ccc(C(=O)OC)c(NC(=O)COC(=O)C2CCC(C(C)(C)C)CC2)c1` (stereo not drawn), the Potency was inconclusive: 29.1 µM [activator, partial curve, poor fit]. In the case of `CC(=O)Nc1cccc(Oc2cc(C#N)c(C#N)cc2N2CCOCC2)c1`, the Potency is reported as inconclusive: 29.1 µM [activator, single point]. For `O=C(N/N=C/c1ccccn1)c1sc2ccccc2c1Cl`, the Potency was inconclusive: 14.6 µM [activator, partial curve, poor fit]. With `Cc1cccn2c(=O)c(C=O)c(N3CCSCC3)nc12` the Potency was active: 5.8 µM. In the case of `CCC(C)[C@H](NC(=O)c1cc2cc(Cl)ccc2n1C)C(=O)N1CCC(C(=O)O)CC1` (stereo partly drawn), the Potency is reported as “inactive”. In the case of `COc1ccc2c(c1OC)C(=O)OC2C1c2c(cc3c(c2OC)OCO3)CCN1C` (stereo not drawn), the Potency is reported as “inactive and inconclusive: 20.6 µM [activator, partial curve, poor fit]”. In the case of `CCOc1cc(C2Nc3cccc4cccc(c34)N2)ccc1O`, the Potency is reported as inconclusive: 25.9 µM [activator, single point]. With `CCOC(=O)c1sc(NC(=O)CSc2n[nH]c(CC)n2)nc1C` the Potency was inconclusive: 0.731 µM [activator, partial curve, poor fit]. For `C1CCCCCC(NCCN2CCNCC2)CCCCC1`, the Potency was inconclusive: 29.1 µM [activator, single point]. For `CN1CCN(C(c2ccccn2)c2cc(Cl)c3cccnc3c2O)CC1` (stereo not drawn), the Potency was inconclusive: 20.6 µM [activator, single point]. In the case of `O=C(N/N=C/c1cn(-c2ccccc2)nc1-c1ccccc1)c1ccco1`, the Potency is reported as “inactive”. For `CCOc1cc(CNc2ccc3c(c2)OCCO3)cc(Br)c1OCC`, the Potency was active: 5.8 µM. In the case of `Cc1cc(Cl)nc(-c2ccccc2)n1`, the Potency is reported as “inactive”. In the case of `CCN(CC)c1ccc(/C=C2\C(=O)N(c3nnc(C)c(=O)[nH]3)N=C2C)cc1`, the Potency is reported as inconclusive: 20.6 µM [activator, single point]. For `CC(=O)Nc1ccc(NC(=O)CCCSc2nc3ccccc3s2)cc1`, the Potency was “inactive”. With `CCOC(=O)c1c2c(c(=S)n(-c3ccccc3)c1N)CCC2` the Potency was inconclusive: 29.1 µM [activator, single point]. With `Cc1cccc(C(=O)NC(CC(=O)O)c2ccc(OC3CCCC3)cc2)c1[N+](=O)[O-]` (stereo not drawn) the Potency was inconclusive: 4.11 µM [activator, single point]. With `Cc1onc(-c2c(F)cccc2Cl)c1C(=O)N1CCc2ccccc21` the Potency was inconclusive: 32.6 µM [activator, partial curve, poor fit]. In the case of `O=C(/C=C/c1ccccc1)CC(O)(c1ccccc1)C(F)(F)F` (stereo not drawn), the Potency is reported as inconclusive: 0.092 µM [activator, full curve, poor fit]. For `O=C(NCC(=O)N1CCC2(CC1)NCCc1[nH]cnc12)c1ccccc1F`, the Potency was “inactive”. With `COC(=O)C1=C(C)NC(=O)NC1c1ccccc1Cl` (stereo not drawn) the Potency was inconclusive: 29.1 µM [activator, single point]. For `CCOC(=O)C1=C(O)C(=O)N(Cc2cccnc2)C1c1ccc(OC)cc1` (stereo not drawn), the Potency was inconclusive: 23.1 µM [activator, single point]. In the case of `COc1ccc(C2c3c(C)nn(-c4ccccc4)c3NC(=O)N2c2ccccc2)cc1` (stereo not drawn), the Potency is reported as inconclusive: 29.1 µM [activator, single point]. For `O=[N+]([O-])/C=C/c1cn(Cc2ccc(Cl)cc2)c2ccccc12`, the Potency was inconclusive: 29.1 µM [activator, single point]. For `NC(=O)[C@@H]1CCCN1C(=O)c1ccc2nc(Cc3cccc(Cl)c3)oc2c1`, the Potency was “inactive”. In the case of `C=CCn1c(=O)c2ccccc2n2c(SC(C)C(=O)Nc3nc(-c4ccccc4)cs3)nnc12` (stereo not drawn), the Potency is reported as “inactive”. For `COc1cc(OC)cc(C(=O)Nc2ccc(S(=O)(=O)Nc3ncccn3)cc2)c1`, the Potency was inconclusive: 6.51 µM [activator, single point]. In the case of `O=C(CCNC(=O)c1ccccc1Cl)NCCC1=CCCCC1`, the Potency is reported as “inactive”. With `Cc1ccc(OCCC(=O)Nc2ccc(S(=O)(=O)N3CCCC3)cc2)cc1` the Potency was inconclusive: 29.1 µM [activator, single point]. In the case of `Cc1ccc(S(=O)(=O)N2CCN(C(=O)CN3C(=O)NC(C)(c4ccc(Cl)cc4)C3=O)CC2)c(C)c1` (stereo not drawn), the Potency is reported as “inactive”. In the case of `Cc1nn(CC(=O)Nc2ccc(C(C)C)cc2)c(C)c1[N+](=O)[O-]`, the Potency is reported as “inactive”. In the case of `CCCN1C[C@H](CSC)C[C@@H]2c3cccc4[nH]cc(c34)C[C@H]21`, the Potency is reported as inconclusive: 0.112 µM [activator, full curve, poor fit]. In the case of `COc1cc(SC)ccc1C(=O)Nc1ncc(C)s1`, the Potency is reported as “inactive”. With `CCCCN(C(=O)CSc1nnc(Nc2ccc(C)c(C)c2)s1)c1c(N)n(Cc2ccccc2)c(=O)[nH]c1=O` the Potency was inconclusive: 23.1 µM [activator, partial curve, poor fit]. In the case of `N#Cc1cccc(NC(=O)Cn2cnc(S(=O)(=O)N3CCc4ccccc43)c2)c1`, the Potency is reported as inconclusive: 23.1 µM [activator, single point]. For `COC(=O)CSc1nsc(SCC(=O)OC)c1C#N`, the Potency was inconclusive: 29.1 µM [activator, single point]. With `Cc1cc(NC(=O)COc2ccccc2C)ccc1NC(=O)c1cccs1` the Potency was “inactive”. With `CC(C(=O)Nc1ccccc1Br)c1ccc([N+](=O)[O-])cc1` (stereo not drawn) the Potency was inconclusive: 0.164 µM [activator, full curve, poor fit]. For `C/C(=N\NC(=O)c1cc(C)nc2ccccc12)c1cccs1`, the Potency was inconclusive: 6.51 µM [activator, single point]. In the case of `O=C(CC1C(=O)NCCN1Cc1ccccc1)NCCCOc1cccnc1` (stereo not drawn), the Potency is reported as “inactive”. For `CCOc1ccccc1NS(=O)(=O)c1ccc(-c2cnc(C3CC3)o2)cc1`, the Potency was inconclusive: 0.0092 µM [activator, full curve, poor fit]. In the case of `Cc1ccc(CSc2nc3ccsc3c(=O)n2Cc2ccccn2)cc1`, the Potency is reported as “inactive”. In the case of `Cc1cc(C)nc(NN=CC2=C(N3CCOCC3)/C(=C/c3ccc(Cl)cc3)CC2)n1`, the Potency is reported as active: 20.6 µM. With `CC1CN(C(=O)CSc2nc(-c3ccc(F)cc3)cs2)CC(C)O1` (stereo not drawn) the Potency was “inactive”. For `CC(C)(C)C(=O)Cn1c(=N)n(Cc2ccccc2)c2ccccc21`, the Potency was inconclusive: 4.61 µM [activator, partial curve]. In the case of `COc1ccc(N(CC(=O)Nc2ccc3c(c2)OCO3)S(=O)(=O)c2ccccc2)c(OC)c1`, the Potency is reported as “inactive”. With `CCOC(=O)c1c(Cc2ccc(Cl)cc2)c[nH]c1C` the Potency was inconclusive: 29.1 µM [activator, single point]. In the case of `CC(=O)N1CCN(S(=O)(=O)c2cccc(C(=O)NCCC3=CCCCC3)c2)CC1`, the Potency is reported as inconclusive: 29.1 µM [activator, partial curve, poor fit]. For `COc1cc(NC(=O)c2cnc(N)s2)cc(C(=O)Nc2cccc(C(F)(F)F)c2)c1`, the Potency was inconclusive: 29.1 µM [activator, single point].
